Measured values as given in PubChem BioAssay AID504467 (National Center for Advancing Translational Sciences (NCATS), 2011).
The whole screen tested about 330,000 compounds, of which about 7,700 (2.3%) were called active. The inconclusive results got no clear call from the source; some entries with a clear call stand among them for comparison. Calls come from the whole dose curve; as a rule, active = well fitted inhibition curve with a large enough effect; inconclusive = small, poorly fitted or top-dose-only effect, or effect the other way; inactive = flat fitted curve, though single readings scatter. Potencies of inconclusive entries are doubtful fits and often do not repeat.

Assay: qHTS screen for small molecules that inhibit ELG1-dependent DNA repair in human embryonic kidney (HEK293T) cells expressing luciferase-tagged ELG1; note: nearly all actives have a fitted effect of over 55% in size
Settings: HEK293T ELG1-luciferase reporter, luminescence, 16 h, DNA damage induced by 5-fluorouridine; series mostly up to 46.1 µM
How it was run: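 DMSO vehicle served as the neutral condition. Each well held 2,000 cells given 5-fluorouridine plus compound; after 16 hr at 37 °C/5% CO2, ONE-Glo was added and luciferase measured 30 min later.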
Potency is the fitted concentration of half-maximal effect.

Compound	Potency
COc1ccc(CCN(C)Cc2cccc3ccccc23)cc1OC	inconclusive: 22.4 µM [inhibitor, single point]
Nc1cccc(Oc2ccc3c(c2)C(=O)NC3=O)c1	inconclusive: 35.5 µM [activator, single point]
Cn1c(N)c(C(=O)COC(=O)C2CCCN2C(=O)c2cccs2)c(=O)n(C)c1=O (stereo not given)	inconclusive: 1.16 µM [inhibitor, single point]
CCOC(=O)c1ccc(NC(=S)Nc2ccc(C)cc2)cc1	inconclusive: 18.3 µM [activator, single point]
CC(C)c1ccc(OCC(=O)Nc2cccc(C(=O)Nc3ccccc3C(=O)O)c2)cc1	inactive
CCN(Cc1ccccc1)c1ccc(/C=N/NC(=O)c2cccc(S(=O)(=O)N3CCOCC3)c2)cc1	inconclusive: 5.17 µM [inhibitor, partial curve]
Cc1cc(C(=O)CSc2nnc(NCc3ccccc3)s2)c(C)n1C	inactive
Cc1[nH]c2ccccc2c1C(=O)C(C)OC(=O)c1ccccc1NCCO (stereo not given)	inconclusive: 4.61 µM [activator, partial curve]
COc1cccc(NC(=O)c2ccc3nc(C)sc3c2)c1	inconclusive: 8.2 µM [activator, partial curve]
CCOC(=O)c1sc(NC(=O)C2CC(=O)N(c3ccccc3OC)C2)nc1C (stereo not given)	inactive
Cc1nn(CC(=O)N2CCN(c3ccccn3)CC2)c(=O)c2cc3sccc3n12	inconclusive: 3.26 µM [activator, single point]
COC(=O)c1cc(Br)c(=O)n(CCN2CCCC2)c1	inactive
COc1ccc2oc(=O)c(-c3csc(Nc4ccc(O)cc4)n3)cc2c1	active: 9.2 µM
S=C(NCCN1CCOCC1)N1CCN(c2cccc(Cl)c2)CC1	inactive
CC[n+]1c(/C=C/c2ccc(OC)c(OC)c2)ccc2ccccc21	inconclusive: 9.2 µM [activator, partial curve]
O=C(c1nn2c(C(F)(F)F)cc(-c3ccco3)nc2c1Br)N1CCCc2ccccc21	inconclusive: 23.1 µM [inhibitor, single point]
O=C(NCc1ccccc1)c1cnc(Cl)c(Cl)c1	inactive
CC(C)Sc1nc2c(c(=O)[nH]c(=O)n2C)n1CC(O)COc1ccccc1 (stereo not given)	inconclusive: 23.1 µM [inhibitor, single point]
Cn1c(=O)oc2cc(S(=O)(=O)Nc3ccccc3O)ccc21	inactive
CN(Cc1ccccc1)C(=O)CN1CCN(C(c2ccccc2)c2ccccc2)CC1	inconclusive: 16.4 µM [inhibitor, single point]

3 entries from above, sorted by heavy-atom count, high to low:
Compound	Potency
CC(C)c1ccc(OCC(=O)Nc2cccc(C(=O)Nc3ccccc3C(=O)O)c2)cc1	inactive
COc1ccc2oc(=O)c(-c3csc(Nc4ccc(O)cc4)n3)cc2c1	active: 9.2 µM
Cc1cc(C(=O)CSc2nnc(NCc3ccccc3)s2)c(C)n1C	inactive
